Measurements from PMC9531947, “Targeting A-kinase anchoring protein 12 phosphorylation in hepatic stellate cells regulates liver injury and fibrosis in mouse models” (eLife, 2022).
Results are given in words; binding and its absence hold for the method and conditions named. In cells and extracts the contact can be indirect. A result given as binding can be weak or reduced; the word gives no strength.

Sequences of proteins named here, by UniProt entry; tags and fusion partners are left off. A change or cut given only in a name is not applied to a line headed by its entry.
UniProt Q9WTQ5: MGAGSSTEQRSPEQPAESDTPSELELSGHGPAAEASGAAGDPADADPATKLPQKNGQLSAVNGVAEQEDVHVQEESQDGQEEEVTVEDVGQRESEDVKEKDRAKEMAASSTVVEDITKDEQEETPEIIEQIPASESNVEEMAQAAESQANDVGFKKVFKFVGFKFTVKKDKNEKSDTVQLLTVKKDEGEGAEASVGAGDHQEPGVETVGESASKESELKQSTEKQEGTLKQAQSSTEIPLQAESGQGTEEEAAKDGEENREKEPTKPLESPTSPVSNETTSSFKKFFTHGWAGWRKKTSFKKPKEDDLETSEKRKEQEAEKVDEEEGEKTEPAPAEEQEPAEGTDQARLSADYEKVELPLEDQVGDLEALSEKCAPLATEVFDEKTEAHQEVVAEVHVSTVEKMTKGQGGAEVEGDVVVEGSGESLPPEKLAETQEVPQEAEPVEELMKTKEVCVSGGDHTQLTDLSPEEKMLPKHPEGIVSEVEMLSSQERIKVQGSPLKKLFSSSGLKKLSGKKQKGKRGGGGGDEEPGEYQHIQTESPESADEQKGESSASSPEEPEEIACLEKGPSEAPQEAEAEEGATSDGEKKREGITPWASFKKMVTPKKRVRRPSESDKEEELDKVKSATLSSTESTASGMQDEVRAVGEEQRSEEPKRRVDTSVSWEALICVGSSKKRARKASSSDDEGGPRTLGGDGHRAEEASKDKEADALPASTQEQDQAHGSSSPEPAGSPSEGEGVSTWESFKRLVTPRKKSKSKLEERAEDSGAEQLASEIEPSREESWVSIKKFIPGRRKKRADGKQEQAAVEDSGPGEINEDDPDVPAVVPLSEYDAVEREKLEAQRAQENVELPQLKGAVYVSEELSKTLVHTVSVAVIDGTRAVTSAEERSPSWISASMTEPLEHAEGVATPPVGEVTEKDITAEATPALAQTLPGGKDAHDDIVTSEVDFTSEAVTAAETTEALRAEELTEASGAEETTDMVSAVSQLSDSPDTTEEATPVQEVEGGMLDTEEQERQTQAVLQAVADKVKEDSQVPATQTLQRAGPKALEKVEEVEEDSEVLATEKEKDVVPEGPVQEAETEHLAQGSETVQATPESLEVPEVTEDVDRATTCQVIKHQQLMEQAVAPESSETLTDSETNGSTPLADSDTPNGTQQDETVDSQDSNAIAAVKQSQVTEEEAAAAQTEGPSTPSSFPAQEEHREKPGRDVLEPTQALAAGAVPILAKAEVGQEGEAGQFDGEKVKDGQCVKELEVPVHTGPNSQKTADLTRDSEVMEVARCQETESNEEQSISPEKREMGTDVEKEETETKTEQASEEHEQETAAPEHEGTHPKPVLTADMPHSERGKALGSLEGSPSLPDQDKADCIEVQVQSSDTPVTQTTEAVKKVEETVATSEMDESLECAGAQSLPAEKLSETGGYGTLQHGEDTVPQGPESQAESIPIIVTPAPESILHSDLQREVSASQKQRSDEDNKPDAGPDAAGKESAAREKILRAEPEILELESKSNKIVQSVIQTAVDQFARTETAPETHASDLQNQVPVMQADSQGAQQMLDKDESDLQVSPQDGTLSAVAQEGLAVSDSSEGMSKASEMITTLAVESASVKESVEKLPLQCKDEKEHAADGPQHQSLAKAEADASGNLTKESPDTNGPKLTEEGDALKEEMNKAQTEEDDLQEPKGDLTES

Experiments:
[1] = target: AKAP12 with its activation-responsive phospho-sites deleted (PDEL), mouse (mouse (endogenous locus in HSCs, edited)) (UniProt Q9WTQ5); experiment: co-IP; culture-activated mouse HSCs, WT or CRISPR-edited (HDR); AKAP12-HSP47 co-immunoprecipitation-immunoblotting
[2] = target: AKAP12 with its activation-responsive phospho-sites deleted (PDEL), mouse (mouse (endogenous locus in HSCs, edited)) (UniProt Q9WTQ5); experiment: proximity ligation; mouse liver sections (oil or CCl4; EV, PDEL or PMUT CRISPR), PLA co-stained with the HSC marker desmin
[3] = target: AKAP12 with its activation-responsive phospho-sites deleted (PDEL), mouse (mouse (endogenous locus in HSCs, edited)) (UniProt Q9WTQ5); experiment: co-IP; mouse liver protein (oil or CCl4 mice; EV, PDEL or PMUT CRISPR AAV); 200 µg pre-cleared protein with 2 µg antibody; AKAP12 antibody and HSP47 blot, or HSP47 antibody and collagen blot; normal mouse IgG as negative control

Measured: binding

B1: heat-shock protein 47 (HSP47), mouse, endogenous (protein, UniProt P19324 18-417)
chain: AEVKKPLEAAAPGTAEKLSSKATTLAERSTGLAFSLYQAMAKDQAVENILLSPLVVASSLGLVSLGGKATTASQAKAVLSAEKLRDEEVHTGLGELLRSLSNSTARNVTWKLGSRLYGPSSVSFADDFVRSSKQHYNCEHSKINFRDKRSALQSINEWASQTTDGKLPEVTKDVERTDGALLVNAMFFKPHWDEKFHHKMVDNRGFMVTRSYTVGVTMMHRTGLYNYYDDEKEKLQMVEMPLAHKLSSLIILMPHHVEPLERLEKLLTKEQLKAWMGKMQKKAVAISLPKGVVEVTHDLQKHLAGLGLTEAIDKNKADLSRMSGKKDLYLASVFHATAFEWDTEGNPFDQDIYGREELRSPKLFYADHPFIFLVRDNQSGSLLFIGRLVRPKGDKMRDEL
binds: [1] | [2] | [3]
